{
  "source": "patent USRE39707E1",
  "about": "“Camptothecin derivatives” (Catholic Healthcare West, priority 2001, dated 2007)",
  "origin": "cited, not measured here",
  "conditions": "background statement; cited from earlier work",
  "data": [
    {"smiles": "CC[C@@]1(O)C(=O)OCc2c1cc1n(c2=O)Cc2cc3ccccc3nc2-1", "note": "[CPT, (S)-4-ethyl-4-hydroxy-1H-pyrano-[3′,4′:6,7]indolizino[1,2-b]quinoline-3,14(4H,12H)-dione, reference compound]", "values": [
      {"measurement": "solubility in water", "result": "essentially insoluble in water"}
    ]}
  ]
}
